The list shows a part of the results.
Target: T1, OsSMF1 (Oryza sativa, UniProt Q6ZLB0 1-436)
T1 sequence: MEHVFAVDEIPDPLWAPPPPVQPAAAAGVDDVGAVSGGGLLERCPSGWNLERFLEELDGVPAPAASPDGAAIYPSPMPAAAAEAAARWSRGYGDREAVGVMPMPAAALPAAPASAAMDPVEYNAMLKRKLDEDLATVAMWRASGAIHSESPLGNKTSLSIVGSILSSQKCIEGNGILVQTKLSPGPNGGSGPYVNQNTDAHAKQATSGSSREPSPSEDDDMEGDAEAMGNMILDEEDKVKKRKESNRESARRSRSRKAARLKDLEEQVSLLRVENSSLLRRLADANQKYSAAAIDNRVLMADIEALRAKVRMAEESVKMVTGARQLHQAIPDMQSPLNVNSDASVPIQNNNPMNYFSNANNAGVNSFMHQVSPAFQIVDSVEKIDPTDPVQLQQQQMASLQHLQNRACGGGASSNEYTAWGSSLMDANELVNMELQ
Assay: protein-binding microarray (RPBM); PBS, 2% BSA, 51.3 ng/ul salmon testes DNA, 50 uM zinc acetate, 200 nM TF, 25 C, 1 h; high values mean tight binding
Details: protein: recombinant; tags: N-terminal polyhistidine and DsRed monomer fusion (pET32a); chain copies: 2; label: CyDye5-dUTP incorporated in the synthesized complementary strand; 3' TTTTT single-stranded linker to array surface; dsDNA, one strand shown
In short: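 Binding signal here means per-feature fluorescence intensity in arbitrary units. The values were read on an Axon 4000B scanner after a custom Agilent array, double-stranded by primer extension with Cy5-dUTP, was incubated with 200 nM protein at 25 °C for 1 h in PBS with 2% BSA, salmon testes DNA and 50 µM zinc acetate, then washed. The proteins were transcription factors with an N-terminal polyhistidine tag and DsRed, expressed in E. coli BL21-CodonPlus and purified on Ni–NTA.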

| Sequence | binding signal |
| --- | --- |
| GGGGAAGGTGGCCACGTCACGCTTTGCTCGCCTCGTCCGGCGGAGTCACCTAGTGCAG | 23500 fluorescence intensity (a.u.) |
| CACACTGACACATGTCCGCGAAATTTCGACGTTTCGACATCGGAGTCACCTAGTGCAG | 3690 fluorescence intensity (a.u.) |
| ACGGCGTCGTCATCAGCCAGGCCGACTACCAGGGCCTACACGGAGTCACCTAGTGCAG | 4060 fluorescence intensity (a.u.) |
| CCGCAAGCCTCCGTCGAGATTGACGTCACCCGTTCAAGCCCGGAGTCACCTAGTGCAG | 9330 fluorescence intensity (a.u.) |
| CGCTCCATCCAACTCATCACACACACGACACAGCACACCGCGGAGTCACCTAGTGCAG | 6930 fluorescence intensity (a.u.) |
| ACGCGAGACCAGGGCAGCTAGGAGAACGGGGACAGGAGGGCGGAGTCACCTAGTGCAG | 3330 fluorescence intensity (a.u.) |
| GGCCGTGAGTGCGGCACGTGGGCTGGCACGGCACGGCCCGCGGAGTCACCTAGTGCAG | 3810 fluorescence intensity (a.u.) |
| AGTTTTGTACGCATGTGTGGCGCTGACGTCATGCCCGATCCGGAGTCACCTAGTGCAG | 18000 fluorescence intensity (a.u.) |
| CATGGGTAGCACATGACTAGTCCAGTTCTCCCTGTCAGCACGGAGTCACCTAGTGCAG | 3870 fluorescence intensity (a.u.) |
| CACAGCACCTCATTTGCGTTACCTCGTATGCCACATAGGACGGAGTCACCTAGTGCAG | 5290 fluorescence intensity (a.u.) |
| TGCGCCGGGAGTTTTCTCGAGCCACGTGTGCTCCTGCTATCGGAGTCACCTAGTGCAG | 11200 fluorescence intensity (a.u.) |
| TCTGCAGGACACGAGGTTCATGACTGTGTTCAGTTATTACCGGAGTCACCTAGTGCAG | 3540 fluorescence intensity (a.u.) |
| CTTGTGGGCCCACATGTTAGTGACCACGTCACGTGGCAGTCGGAGTCACCTAGTGCAG | 7210 fluorescence intensity (a.u.) |
| TATTATCTGCACGCCTTCCACCTCACTCGCTAACCGTTACCGGAGTCACCTAGTGCAG | 5870 fluorescence intensity (a.u.) |
| ACCGAACACCCACGCCAGCCGCCGCGCGCTGCCGCCCCATCGGAGTCACCTAGTGCAG | 3440 fluorescence intensity (a.u.) |
| CCCACTCCTCCAAACCCTCCGTCAGCACAGACCGGCGGTCCGGAGTCACCTAGTGCAG | 3410 fluorescence intensity (a.u.) |
| AACACCACCGCCCGCAGGTGCCAGCACCGCGCCTCCTCCACGGAGTCACCTAGTGCAG | 3250 fluorescence intensity (a.u.) |
| AACGCCCGCTGACACGTGGGCCCCGCTTGCCCTCCAGCTCCGGAGTCACCTAGTGCAG | 16300 fluorescence intensity (a.u.) |
| CCGATGACGTTAGAACCATATGTGTTACTGCTGACGCATACGGAGTCACCTAGTGCAG | 11700 fluorescence intensity (a.u.) |
| CATGCTCCTGCTCTTCCATGGCGGCGGCGACACGCACCCTCGGAGTCACCTAGTGCAG | 3240 fluorescence intensity (a.u.) |
| GTTAAATGCACGACGTCATGCAAATGCGACTGTGAGACCGCGGAGTCACCTAGTGCAG | 3940 fluorescence intensity (a.u.) |

| Sequence | binding signal |
| --- | --- |
| GGCAGACAGCCCAACAATCAGACTTGGCGTGTACGGTTCCCGGAGTCACCTAGTGCAG | 3610 fluorescence intensity (a.u.) |
| GATGTGACTGAAAAGTTGTGTGTGTATGACAGGTACATGTCGGAGTCACCTAGTGCAG | 4090 fluorescence intensity (a.u.) |
| GAATGTAGTAATACAATATGGAACTACACGTGTACTTTGCCGGAGTCACCTAGTGCAG | 8310 fluorescence intensity (a.u.) |
| TTGGCCTCCACGACTACCACACCATCATCACCAAGCCCATCGGAGTCACCTAGTGCAG | 4190 fluorescence intensity (a.u.) |
| TTCTTTTAATTCTAATATCACATAAGCGCCACGTGAGACGCGGAGTCACCTAGTGCAG | 3320 fluorescence intensity (a.u.) |
| AGCATCCTGACCACCATTTGATAAAGACACACGTGGAGGCCGGAGTCACCTAGTGCAG | 8150 fluorescence intensity (a.u.) |
| GGACGCTCCCGATGTGTTCCACGTCATCGATCCGCGGCACCGGAGTCACCTAGTGCAG | 24700 fluorescence intensity (a.u.) |
| GTACAGTACGTACGATGGTGCCTCATCGGCTGACCCAATCCGGAGTCACCTAGTGCAG | 3790 fluorescence intensity (a.u.) |
| CAGATTAAATCATTCATGACAAGACACTTTGACCCATCATCGGAGTCACCTAGTGCAG | 4090 fluorescence intensity (a.u.) |
| TCTATTCCTCATAGAATCAGTTCTGCCTATTAGTTTTGTTCGGAGTCACCTAGTGCAG | 24600 fluorescence intensity (a.u.) |
| CAAATTTTCTTGGACTTGGAGATCAAATATTTATGACTGTCGGAGTCACCTAGTGCAG | 14700 fluorescence intensity (a.u.) |
| AGCAGGTTGGAGTTCGAGGTTTAGGGCTGACATCATCGTCCGGAGTCACCTAGTGCAG | 10900 fluorescence intensity (a.u.) |
| CAAAGAGGAAAGCCAAACGACCCAACCGCATATCCATTTCCGGAGTCACCTAGTGCAG | 28600 fluorescence intensity (a.u.) |
| AGTGTACGTGAAAGCGTGGCATGGCCGATACCGACCATCTCGGAGTCACCTAGTGCAG | 4410 fluorescence intensity (a.u.) |
| CAGCTGGCCACGTCATCAAACTCCTCTCTCTTTTCCCCTCCGGAGTCACCTAGTGCAG | 38900 fluorescence intensity (a.u.) |
| TCCACATTTAATATTTCATACATATGTCCAACATTCGATGCGGAGTCACCTAGTGCAG | 3270 fluorescence intensity (a.u.) |
| TGACAGAGTAAATGCGATATGAACCGCTCGATGAAATTTGCGGAGTCACCTAGTGCAG | 26100 fluorescence intensity (a.u.) |
| GAGATAGTAATAACGTGTGATTAATTAAGTTTTAATTATTCGGAGTCACCTAGTGCAG | 3310 fluorescence intensity (a.u.) |
| ATAGTTAGGTGACAATTGACAAGTGTCAAGTTGTGTATGACGGAGTCACCTAGTGCAG | 3360 fluorescence intensity (a.u.) |
| AAGAAGCAACACACATTTCAAATTTAAAATCCGAGTCAAGCGGAGTCACCTAGTGCAG | 3810 fluorescence intensity (a.u.) |
| CCCCATTAAACGGAAAATTAGGTGCCTGATGAATTTACATCGGAGTCACCTAGTGCAG | 19600 fluorescence intensity (a.u.) |

Given with bars between the fields: entries from further up
Sequence | binding signal
GGCAGACAGCCCAACAATCAGACTTGGCGTGTACGGTTCCCGGAGTCACCTAGTGCAG | 3610 fluorescence intensity (a.u.)
GATGTGACTGAAAAGTTGTGTGTGTATGACAGGTACATGTCGGAGTCACCTAGTGCAG | 4090 fluorescence intensity (a.u.)
GAATGTAGTAATACAATATGGAACTACACGTGTACTTTGCCGGAGTCACCTAGTGCAG | 8310 fluorescence intensity (a.u.)

Reference: PMC7819943, “Rice protein-binding microarrays: a tool to detect cis-acting elements near promoter regions in rice”
